Measured values reported in publication PMC4299769.
These are yes or no findings as the source states them, for the method shown.

The chains behind the UniProt entries cited, without tags or fusion partners. Residues count along the entry.
UniProt A0A0B5JC15, residues 20-291: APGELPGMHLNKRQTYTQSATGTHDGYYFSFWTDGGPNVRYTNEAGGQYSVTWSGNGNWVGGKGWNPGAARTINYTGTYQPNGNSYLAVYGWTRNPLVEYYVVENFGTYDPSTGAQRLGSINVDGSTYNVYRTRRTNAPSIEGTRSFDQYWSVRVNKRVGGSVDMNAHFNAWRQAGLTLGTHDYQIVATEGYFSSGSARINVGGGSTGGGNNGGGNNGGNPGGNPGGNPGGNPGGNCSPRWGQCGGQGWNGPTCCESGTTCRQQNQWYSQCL

Molecular target: Recombinant Xyn11B (mature endo-1,4-β-xylanase of glycoside hydrolase family 11 from Humicola insolens Y1) (Humicola insolens Y1)
Assay: SEC; purified recombinant Xyn11B; column and conditions not told; both purified

## Recombinant Xyn11B (mature endo-1,4-β-xylanase of glycoside hydrolase family 11 from Humicola insolens Y1) (from UniProt A0A0B5JC15 20-291) (enzyme)
  binding: no binding
